Measured data: PubChem BioAssay AID1259275 (Sanger Institute, 2017)
Purpose: 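Kinome and custom colorectal gene library screened for lethal knock-downs and drug partners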 (primary screen). Cell system: COLO320HSR human colorectal cancer cells. Reagent: siRNA pool against human genes. Treatment: anchor drug added one day after transfection: BYL719 at 1 µM, cetuximab at 5 µg/ml or trametinib at 10 nM; DMSO as vehicle arm. Read-out: 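Viability averaged over replicates as a fraction of the non-targeting pool, a robust z-score for knock-down alone, and synergy scores with BYL719 (1 µM), cetuximab (5 µg/ml) or trametinib (10 nM)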. Scale: robust z-score, siRNA alone: higher = more viable cells; strongly negative means essential; viability, knock-down alone (DMSO): higher = more viable cells; synergy score with BYL719 and synergy score with cetuximab: higher = stronger combined killing with drug. Hit rule: 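a gene is called essential when its robust z-score without drug falls below -3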. Calls: active = essential (siRNA alone); inactive = no change (siRNA alone).
Here is an unselected part of 794 reagents tested. Over the whole deposit, 13 (1.6%) were called active. 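Calls mark knock-downs lethal by themselves, not drug synergy; drugs went in a day after transfection, with DMSO as vehicle.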 Viability is capped at 1. Not all columns of the deposit are shown. The record does not give: the amount of reagent, the time to read-out.

no.	gene	robust z-score, siRNA alone	viability, knock-down alone (DMSO) (fraction of control)	synergy score with BYL719	synergy score with cetuximab	call
1	MVK	-0.109	0.925	0.0179	0.00779	inactive
2	ADK	0.726	1	-0.239	-0.0893	inactive
3	COMMD3	0.582	0.987	0.0101	-0.0557	inactive
4	MUSK	-0.815	0.861	-0.0231	-0.0357	inactive
5	NEK6	0.726	1	-0.296	-0.0893	inactive
6	NEK2	0.726	1	-0.0413	-0.0893	inactive
7	PHKG2	0.726	1	-0.171	0.0118	inactive
8	AURKC	0.726	1	-0.0796	-0.0893	inactive
9	BTK	-0.504	0.889	-0.199	-0.19	inactive
10	MAPK15	-0.159	0.92	-0.118	-0.162	inactive
11	PINK1	0.197	0.952	-0.028	0.0194	inactive
12	DYRK4	0.506	0.98	-0.118	-0.0713	inactive
13	MAP2K3	-0.0843	0.927	-0.0846	-0.0832	inactive
14	GK	0.726	1	-0.176	-0.0893	inactive
15	RPS6KB2	0.726	1	-0.0301	-0.0893	inactive
16	EIF2AK4	-0.209	0.916	-0.211	-0.0654	inactive
17	GRK6	-0.826	0.86	-0.175	-0.0535	inactive
18	SLK	0.229	0.955	-0.229	-0.0308	inactive
19	STK36	0.726	1	-0.129	-0.0893	inactive
20	NME1	0.726	1	-0.0556	-0.0893	inactive
21	PKIA	0.108	0.944	-0.118	-0.102	inactive
22	DGUOK	0.726	1	-0.198	-0.0893	inactive
23	PAPSS2	-0.235	0.913	-0.276	-0.168	inactive
24	IKBKG	0.726	1	-0.119	-0.0893	inactive
25	LMTK2	0.726	1	0.0315	-0.0893	inactive
26	ROS1	0.00228	0.935	-0.18	-0.115	inactive
27	EFNB3	-0.454	0.893	-0.0222	-0.0285	inactive
28	CLK2	-0.475	0.892	-0.236	-0.136	inactive
29	NRK	0.726	1	-0.233	-0.0893	inactive
30	CREBBP	-1.66	0.785	-0.0329	-0.143	inactive
31	PFKFB4	0.519	0.981	-0.113	-0.0502	inactive
32	TAOK3	-1.53	0.796	-0.0306	-0.14	inactive
33	PTK2	-0.0498	0.93	-0.227	-0.153	inactive
34	NF1	0.699	0.998	-0.125	0.0194	inactive
35	PNKP	-0.975	0.846	0.0743	-0.0102	inactive
36	GALK2	0.726	1	-0.0517	-0.0893	inactive
37	CTNNB1	-3.12	0.653	-0.0512	-0.2	active
38	MASTL	0.726	1	-0.106	-0.0893	inactive
39	TRIB1	0.726	1	-0.0927	-0.0802	inactive
40	CSNK1A1L	0.619	0.99	-0.141	-0.0436	inactive
41	PRKCSH	-0.113	0.924	-0.101	-0.152	inactive
42	CAMK4	0.726	1	-0.244	-0.0893	inactive
43	MPP3	-0.373	0.901	-0.068	-0.0924	inactive
44	ANKK1	0.159	0.949	-0.0631	-0.0694	inactive
45	GRK3	0.726	1	-0.101	-0.0893	inactive
46	STK11	-0.818	0.861	-0.175	-0.216	inactive
47	MAPK3	-1.23	0.823	-0.168	-0.13	inactive
48	ADPGK	-0.872	0.856	-0.0217	-0.00345	inactive
49	IGF1R	-0.86	0.857	-0.113	-0.0564	inactive
50	PIK3CA	0.51	0.981	-0.169	-0.107	inactive

Not a retest: an excerpt of the list.
no.	gene	robust z-score, siRNA alone	viability, knock-down alone (DMSO) (fraction of control)	synergy score with BYL719	synergy score with cetuximab	call
5	NEK6	0.726	1	-0.296	-0.0893	inactive
6	NEK2	0.726	1	-0.0413	-0.0893	inactive
7	PHKG2	0.726	1	-0.171	0.0118	inactive
8	AURKC	0.726	1	-0.0796	-0.0893	inactive
9	BTK	-0.504	0.889	-0.199	-0.19	inactive
